# The list shows a part of the results, in another mix than the full data.
# By UniProt entry, the sequences of proteins in these tests, tags left out. Where a name states a change or a piece, a line headed by the entry shows the natural chain unless it says otherwise.
# UniProt Q9ULC4: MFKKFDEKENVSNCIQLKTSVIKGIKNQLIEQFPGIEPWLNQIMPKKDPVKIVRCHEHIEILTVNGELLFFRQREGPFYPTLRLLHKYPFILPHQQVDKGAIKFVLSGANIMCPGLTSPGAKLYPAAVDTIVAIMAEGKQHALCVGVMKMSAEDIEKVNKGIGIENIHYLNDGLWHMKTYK
# UniProt Q9Y221: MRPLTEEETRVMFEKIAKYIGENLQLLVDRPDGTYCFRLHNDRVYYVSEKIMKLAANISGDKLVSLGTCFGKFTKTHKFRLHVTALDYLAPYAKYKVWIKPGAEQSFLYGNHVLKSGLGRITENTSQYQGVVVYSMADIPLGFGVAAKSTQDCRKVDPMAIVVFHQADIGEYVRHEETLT
# UniProt Q9Y2X3: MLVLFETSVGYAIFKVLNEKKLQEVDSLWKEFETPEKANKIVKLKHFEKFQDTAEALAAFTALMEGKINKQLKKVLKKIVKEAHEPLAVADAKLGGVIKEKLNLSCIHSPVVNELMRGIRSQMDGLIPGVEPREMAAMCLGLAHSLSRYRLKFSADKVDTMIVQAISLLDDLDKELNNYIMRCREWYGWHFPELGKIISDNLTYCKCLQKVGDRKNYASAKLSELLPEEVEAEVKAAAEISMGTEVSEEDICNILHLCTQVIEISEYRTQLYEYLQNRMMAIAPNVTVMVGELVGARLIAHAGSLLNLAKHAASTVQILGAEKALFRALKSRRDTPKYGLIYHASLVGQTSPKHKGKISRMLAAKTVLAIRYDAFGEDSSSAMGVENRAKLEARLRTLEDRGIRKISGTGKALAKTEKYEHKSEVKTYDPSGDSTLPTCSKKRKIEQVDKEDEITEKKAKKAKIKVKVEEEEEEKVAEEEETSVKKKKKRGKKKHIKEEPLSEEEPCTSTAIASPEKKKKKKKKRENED
# UniProt Q9UPN4: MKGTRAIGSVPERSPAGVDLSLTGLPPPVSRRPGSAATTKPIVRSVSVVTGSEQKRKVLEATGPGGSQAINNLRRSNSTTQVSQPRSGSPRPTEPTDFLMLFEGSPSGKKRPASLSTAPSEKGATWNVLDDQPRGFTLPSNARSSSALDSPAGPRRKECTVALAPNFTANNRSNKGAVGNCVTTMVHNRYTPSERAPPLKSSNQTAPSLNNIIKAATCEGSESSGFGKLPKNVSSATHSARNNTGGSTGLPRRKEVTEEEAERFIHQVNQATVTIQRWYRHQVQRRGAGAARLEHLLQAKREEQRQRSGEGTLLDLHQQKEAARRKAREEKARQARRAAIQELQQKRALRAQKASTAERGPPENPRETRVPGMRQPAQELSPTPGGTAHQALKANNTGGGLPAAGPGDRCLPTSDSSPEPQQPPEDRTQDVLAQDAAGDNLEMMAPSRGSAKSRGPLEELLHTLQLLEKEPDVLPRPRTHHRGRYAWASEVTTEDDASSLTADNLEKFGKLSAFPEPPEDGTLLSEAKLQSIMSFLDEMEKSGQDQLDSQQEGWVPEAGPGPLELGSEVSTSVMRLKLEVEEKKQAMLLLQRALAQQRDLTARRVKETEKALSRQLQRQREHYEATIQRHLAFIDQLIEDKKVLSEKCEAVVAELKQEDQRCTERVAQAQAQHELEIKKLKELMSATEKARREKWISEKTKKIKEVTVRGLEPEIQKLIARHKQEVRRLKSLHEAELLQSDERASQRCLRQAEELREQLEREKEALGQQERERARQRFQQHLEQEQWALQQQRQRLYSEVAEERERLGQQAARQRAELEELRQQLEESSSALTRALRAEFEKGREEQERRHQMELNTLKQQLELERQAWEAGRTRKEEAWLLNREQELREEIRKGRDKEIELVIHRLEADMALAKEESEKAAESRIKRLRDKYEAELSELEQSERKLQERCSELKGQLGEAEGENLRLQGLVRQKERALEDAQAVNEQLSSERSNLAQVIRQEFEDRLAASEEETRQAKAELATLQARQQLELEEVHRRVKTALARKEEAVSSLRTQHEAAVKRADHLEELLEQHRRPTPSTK
# UniProt Q9UKX7: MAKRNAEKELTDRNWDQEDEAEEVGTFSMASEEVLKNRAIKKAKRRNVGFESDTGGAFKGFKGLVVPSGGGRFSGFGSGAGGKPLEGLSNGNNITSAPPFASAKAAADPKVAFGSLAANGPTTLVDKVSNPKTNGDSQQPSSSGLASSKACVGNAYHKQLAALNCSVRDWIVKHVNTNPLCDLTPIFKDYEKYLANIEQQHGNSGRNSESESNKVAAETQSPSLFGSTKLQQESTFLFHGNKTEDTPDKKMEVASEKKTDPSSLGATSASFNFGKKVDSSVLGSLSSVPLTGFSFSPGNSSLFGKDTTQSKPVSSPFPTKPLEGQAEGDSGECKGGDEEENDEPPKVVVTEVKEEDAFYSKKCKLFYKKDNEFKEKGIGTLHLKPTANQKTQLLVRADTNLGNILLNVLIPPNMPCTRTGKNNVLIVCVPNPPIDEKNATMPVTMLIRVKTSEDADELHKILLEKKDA
# UniProt Q9UPR0: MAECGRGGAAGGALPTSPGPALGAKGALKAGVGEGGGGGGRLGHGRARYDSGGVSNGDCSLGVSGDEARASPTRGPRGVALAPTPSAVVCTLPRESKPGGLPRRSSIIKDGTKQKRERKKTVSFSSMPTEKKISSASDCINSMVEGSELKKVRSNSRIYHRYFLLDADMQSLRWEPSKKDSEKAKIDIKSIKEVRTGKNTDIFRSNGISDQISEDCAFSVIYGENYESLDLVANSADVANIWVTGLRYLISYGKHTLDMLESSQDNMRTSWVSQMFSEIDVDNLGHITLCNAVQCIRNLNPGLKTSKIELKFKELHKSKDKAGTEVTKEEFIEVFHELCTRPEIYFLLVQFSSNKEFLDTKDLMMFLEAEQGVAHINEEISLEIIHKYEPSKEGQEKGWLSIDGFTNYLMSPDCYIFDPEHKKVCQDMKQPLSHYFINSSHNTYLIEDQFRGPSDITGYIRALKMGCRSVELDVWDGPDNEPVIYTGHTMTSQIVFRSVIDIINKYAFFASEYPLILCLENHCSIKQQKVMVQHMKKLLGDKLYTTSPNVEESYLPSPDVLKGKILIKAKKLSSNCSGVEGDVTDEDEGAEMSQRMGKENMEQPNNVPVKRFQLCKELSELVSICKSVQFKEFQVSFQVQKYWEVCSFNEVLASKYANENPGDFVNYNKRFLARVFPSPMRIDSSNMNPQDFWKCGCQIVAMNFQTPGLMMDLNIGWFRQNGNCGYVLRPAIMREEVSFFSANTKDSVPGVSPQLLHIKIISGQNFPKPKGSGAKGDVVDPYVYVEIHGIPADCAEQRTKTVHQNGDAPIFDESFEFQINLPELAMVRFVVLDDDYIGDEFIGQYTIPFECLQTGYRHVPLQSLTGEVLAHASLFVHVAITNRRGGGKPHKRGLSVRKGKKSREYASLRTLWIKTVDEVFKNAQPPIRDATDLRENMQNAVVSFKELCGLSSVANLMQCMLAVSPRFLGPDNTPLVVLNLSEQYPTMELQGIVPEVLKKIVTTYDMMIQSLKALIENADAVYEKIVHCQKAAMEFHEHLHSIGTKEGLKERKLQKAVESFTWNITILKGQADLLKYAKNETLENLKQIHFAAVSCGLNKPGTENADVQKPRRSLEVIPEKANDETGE
# UniProt Q9ULT8: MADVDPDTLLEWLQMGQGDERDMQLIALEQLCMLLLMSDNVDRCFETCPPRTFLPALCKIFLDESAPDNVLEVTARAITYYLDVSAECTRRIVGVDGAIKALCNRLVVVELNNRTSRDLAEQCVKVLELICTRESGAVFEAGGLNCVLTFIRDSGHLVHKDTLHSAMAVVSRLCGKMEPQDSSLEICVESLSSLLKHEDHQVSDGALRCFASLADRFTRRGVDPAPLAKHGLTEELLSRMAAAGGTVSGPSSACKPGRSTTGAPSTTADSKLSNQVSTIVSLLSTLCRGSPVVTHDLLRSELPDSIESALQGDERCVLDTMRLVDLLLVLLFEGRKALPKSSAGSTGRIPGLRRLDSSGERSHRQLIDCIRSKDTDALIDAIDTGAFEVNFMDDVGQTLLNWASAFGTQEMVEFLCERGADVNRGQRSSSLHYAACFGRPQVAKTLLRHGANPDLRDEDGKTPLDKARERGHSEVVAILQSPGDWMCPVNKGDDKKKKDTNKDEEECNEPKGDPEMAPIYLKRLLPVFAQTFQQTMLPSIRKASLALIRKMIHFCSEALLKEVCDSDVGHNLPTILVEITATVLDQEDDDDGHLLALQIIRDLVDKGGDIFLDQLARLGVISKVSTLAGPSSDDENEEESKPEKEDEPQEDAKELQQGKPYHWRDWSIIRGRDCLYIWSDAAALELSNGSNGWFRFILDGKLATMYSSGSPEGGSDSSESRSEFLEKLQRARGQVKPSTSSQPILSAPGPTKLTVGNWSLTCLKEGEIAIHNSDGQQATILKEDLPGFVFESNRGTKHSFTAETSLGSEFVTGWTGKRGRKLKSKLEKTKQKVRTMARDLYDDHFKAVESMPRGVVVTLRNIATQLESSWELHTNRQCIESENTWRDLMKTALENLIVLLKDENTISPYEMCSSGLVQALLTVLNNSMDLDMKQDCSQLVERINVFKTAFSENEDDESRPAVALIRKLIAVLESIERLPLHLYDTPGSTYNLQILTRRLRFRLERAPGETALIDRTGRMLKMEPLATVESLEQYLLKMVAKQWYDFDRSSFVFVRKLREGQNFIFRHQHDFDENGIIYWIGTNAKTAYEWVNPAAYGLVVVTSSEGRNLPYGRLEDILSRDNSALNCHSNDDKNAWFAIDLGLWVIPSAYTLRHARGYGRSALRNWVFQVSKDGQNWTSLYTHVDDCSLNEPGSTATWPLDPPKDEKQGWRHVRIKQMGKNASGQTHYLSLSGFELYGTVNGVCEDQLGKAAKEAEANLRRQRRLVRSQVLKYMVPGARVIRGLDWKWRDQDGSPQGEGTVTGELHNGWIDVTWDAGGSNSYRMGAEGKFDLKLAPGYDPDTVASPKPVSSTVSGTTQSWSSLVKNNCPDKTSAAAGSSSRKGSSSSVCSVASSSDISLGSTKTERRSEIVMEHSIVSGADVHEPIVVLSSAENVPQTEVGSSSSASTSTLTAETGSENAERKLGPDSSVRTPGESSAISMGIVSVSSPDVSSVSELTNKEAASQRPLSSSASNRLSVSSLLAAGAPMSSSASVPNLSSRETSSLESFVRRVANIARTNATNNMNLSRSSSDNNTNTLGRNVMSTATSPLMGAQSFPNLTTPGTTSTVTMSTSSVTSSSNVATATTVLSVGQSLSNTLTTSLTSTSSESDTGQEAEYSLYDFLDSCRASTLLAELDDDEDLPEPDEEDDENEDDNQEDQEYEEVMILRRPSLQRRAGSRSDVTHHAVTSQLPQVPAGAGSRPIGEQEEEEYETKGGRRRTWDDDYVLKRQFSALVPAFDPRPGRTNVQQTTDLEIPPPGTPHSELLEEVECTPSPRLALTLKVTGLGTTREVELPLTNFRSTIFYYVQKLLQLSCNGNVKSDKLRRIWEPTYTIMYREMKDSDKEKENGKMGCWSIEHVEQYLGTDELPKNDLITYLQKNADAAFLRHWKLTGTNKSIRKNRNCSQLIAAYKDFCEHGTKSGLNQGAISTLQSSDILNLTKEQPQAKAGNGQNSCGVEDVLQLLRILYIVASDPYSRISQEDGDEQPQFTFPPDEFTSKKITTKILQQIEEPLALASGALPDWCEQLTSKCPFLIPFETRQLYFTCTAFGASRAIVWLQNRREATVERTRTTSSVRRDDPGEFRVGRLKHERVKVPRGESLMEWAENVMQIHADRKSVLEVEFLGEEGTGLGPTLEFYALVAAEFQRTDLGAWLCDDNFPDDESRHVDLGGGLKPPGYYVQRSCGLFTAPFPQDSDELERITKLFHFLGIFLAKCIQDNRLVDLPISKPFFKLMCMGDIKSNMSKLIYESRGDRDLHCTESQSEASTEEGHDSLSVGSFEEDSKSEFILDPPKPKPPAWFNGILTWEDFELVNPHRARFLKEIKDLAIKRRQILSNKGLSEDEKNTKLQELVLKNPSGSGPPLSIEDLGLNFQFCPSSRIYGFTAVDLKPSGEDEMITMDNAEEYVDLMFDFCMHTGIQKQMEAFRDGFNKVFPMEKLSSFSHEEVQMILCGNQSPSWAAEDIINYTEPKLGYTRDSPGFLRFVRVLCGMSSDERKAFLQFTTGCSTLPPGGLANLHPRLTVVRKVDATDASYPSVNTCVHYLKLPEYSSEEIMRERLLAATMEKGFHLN
# UniProt Q9Y448: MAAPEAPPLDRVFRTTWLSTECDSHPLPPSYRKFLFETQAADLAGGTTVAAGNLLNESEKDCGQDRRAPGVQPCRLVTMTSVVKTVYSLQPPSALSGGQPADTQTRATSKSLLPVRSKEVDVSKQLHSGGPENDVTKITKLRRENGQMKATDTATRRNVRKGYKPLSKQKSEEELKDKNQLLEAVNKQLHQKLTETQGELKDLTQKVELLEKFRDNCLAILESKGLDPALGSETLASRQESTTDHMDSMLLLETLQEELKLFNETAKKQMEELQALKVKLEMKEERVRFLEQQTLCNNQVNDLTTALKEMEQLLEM
# Compound: COC(=O)C#Cc1ccccc1 [methyl 3-phenylpropiolate]
# Experiment: log2 ratio of iodoacetamide-alkyne labeling of the cysteine site, DMSO over compound (competition); higher = stronger covalent engagement of the cysteine by the compound, active = 1 or more
# Details: 500 µM; treatment time 1 h; system: HEK293T cell lysate
# Procedure, shortened: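 For each cysteine, the log2 competition ratio is mean control-channel reporter intensity over mean compound-channel reporter intensity. HEK293T lysate (2 mg/mL) was exposed to vehicle or electrophile (500 µM, 1 h, ambient temperature), labelled with iodoacetamide alkyne (1 h), clicked to sCIP-TMT reagents, digested overnight with trypsin at 37 °C, streptavidin-enriched and analysed by Orbitrap Eclipse LC-MS/MS with FAIMS and FragPipe. Cysteines quantified in only one of three replicates, each with duplicate channels, were excluded.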
row,Target,log2 ratio of iodoacetamide-alkyne labeling
1,VPS51 C421 (UniProt Q9UID3),inactive: -0.193
2,MCTS1 C113 (UniProt Q9ULC4),inactive: -0.0609
3,NIP7 C36 (UniProt Q9Y221),inactive: 0.0199
4,NOP58 C106 (UniProt Q9Y2X3),inactive: 0.686
5,UniProt Q9UPN4_C181,inactive: 0.641
6,MYO6 C691 (UniProt Q9UM54),inactive: -0.347
7,NUP50 C416 (UniProt Q9UKX7),inactive: 0.0524
8,PLCL2 C90 (UniProt Q9UPR0),inactive: 0.408
9,NOTCH3 C134 (UniProt Q9UM47),active: 1.63
10,GSTK1 C176 (UniProt Q9Y2Q3),inactive: 0.387
11,UniProt Q9Y3I0_C193,inactive: 0.142
12,SRRM2 C2116 (UniProt Q9UQ35),inactive: 0.88
13,HECTD1 C369 (UniProt Q9ULT8),inactive: 0.152
14,UniProt Q9Y3L5_C140,inactive: 0.267
15,MED13 C402 (UniProt Q9UHV7),inactive: 0.619
16,NUP50 C181 (UniProt Q9UKX7),inactive: -0.0096
17,HECTD1 C1893 (UniProt Q9ULT8),inactive: -0.11
18,UniProt Q9UI30_C100,inactive: 0.727
19,BAZ2A C943 (UniProt Q9UIF9),inactive: -0.0243
20,FAF1 C260 (UniProt Q9UNN5),inactive: 0.0604
21,UniProt Q9Y448_C296,inactive: -0.0325
22,NFU1 C210 (UniProt Q9UMS0),active: 1.06

# Numbers 16 to 17, reprinted for reference:
row,Target,log2 ratio of iodoacetamide-alkyne labeling
16,NUP50 C181 (UniProt Q9UKX7),inactive: -0.0096
17,HECTD1 C1893 (UniProt Q9ULT8),inactive: -0.11

# — the supplement of paper PMC11006884
